From paper PMC5348406
Results are given in words; binding and its absence hold for the method and conditions named. In cells and extracts the contact can be indirect. Some entries that bind do so weakly or less than the wild type.

The chains behind the UniProt entries cited, without tags or fusion partners.
UniProt O15205: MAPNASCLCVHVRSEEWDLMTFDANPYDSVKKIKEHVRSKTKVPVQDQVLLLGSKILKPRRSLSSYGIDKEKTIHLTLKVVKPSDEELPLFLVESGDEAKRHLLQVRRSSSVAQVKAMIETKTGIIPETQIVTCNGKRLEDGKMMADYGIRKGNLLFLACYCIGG
UniProt O15392: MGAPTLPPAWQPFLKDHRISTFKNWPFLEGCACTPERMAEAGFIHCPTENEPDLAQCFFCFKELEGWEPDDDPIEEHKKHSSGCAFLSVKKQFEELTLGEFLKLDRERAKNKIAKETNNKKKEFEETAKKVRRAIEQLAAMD

Columns and labels:
[1] = target: HLA-F locus adjacent transcript 10 (FAT10) (human) (UniProt O15205); assay: co-IP; lysates of 5637 and UM-UC-3 cells; performed as previously described (ref. 34); which partner was precipitated is not told
His-FAT10 (human) = His-FAT10 (human) (UniProt O15205); assay: co-IP; lysates of 5637 and UM-UC-3 cells transfected with increasing amounts of His-FAT10 plasmid; immunoprecipitation with anti-Ub and anti-FAT10 beads, Survivin detected

In the case of Survivin (from UniProt O15392 1-142), the binding [1] is reported as “binds” and the binding (His-FAT10 (human)) is reported as “binds”.
